No constants are given. Whether binding was seen depends on the method and setting. Binding seen in cells or lysates may run through a third protein. Binding calls can cover weak binding; strength is not graded here.
Tests used:
Assay in all cases: pull-down; 35S-methionine labeled in vitro translated protein incubated with GST fusion protein on beads in NET-N buffer (50 mM Tris pH 8.0, 150 mM NaCl, 0.5% NP-40) 1.5 h at 4°C; SDS-PAGE, autoradiography; only the target purified
[1] = target: GST-ΔINCENP C5 (aa 878–919) (human)
[2] = target: GST-ΔINCENP C4 (aa 855–919) (human)
[3] = target: GST-ΔINCENP C3 (aa 822–919) (human)
[4] = target: GST-ΔINCENP C6 (aa 822–897) (human)

B1: 35S-labeled Aurora-C full length (in vitro translated) (enzyme, UniProt Q9UQB9 1-309)
chain: MSSPRAVVQLGKAQPAGEELATANQTAQQPSSPAMRRLTVDDFEIGRPLGKGKFGNVYLARLKESHFIVALKVLFKSQIEKEGLEHQLRREIEIQAHLQHPNILRLYNYFHDARRVYLILEYAPRGELYKELQKSEKLDEQRTATIIEELADALTYCHDKKVIHRDIKPENLLLGFRGEVKIADFGWSVHTPSLRRKTMCGTLDYLPPEMIEGRTYDEKVDLWCIGVLCYELLVGYPPFESASHSETYRRILKVDVRFPLSMPLGARDLISRLLRYQPLERLPLAQILKHPWVQAHSRRVLPPCAQMAS
modifications: 35S-methionine label
For B1, which binding [1] is on record?
The binding was “binds weakly”.

And the binding [2]?
Its binding is “binds weakly”.

What about the binding [3] of the same binder?
The binding was “binds”.

What about the binding [4] of the same binder?
Its binding is “binds”.

Source: PMC4917241
